Measured values published in publication PMC10759521.
These are yes or no findings as the source states them, for the method shown. In cells and extracts the contact can be indirect. Some entries that bind do so weakly or less than the wild type.

Target: Tumor protein p53 (human (endogenous in A549 and SPC-A1)) (UniProt P04637)
Assay: co-IP; A549 or SPC-A1 whole cell lysates, pre-cleared with Protein A/G PLUS-Agarose, immunoprecipitated with anti-p53 antibody (mock IgG as control), collected on Protein A/G PLUS-Agarose overnight at 4 °C, washed three times, western blot of endogenous proteins

B1: DDB1 and CUL4 associated factor 13 (protein, UniProt Q9NV06 1-445)
chain: MKVKMLSRNPDNYVRETKLDLQRVPRNYDPALHPFEVPREYIRALNATKLERVFAKPFLASLDGHRDGVNCLAKHPEKLATVLSGACDGEVRIWNLTQRNCIRTIQAHEGFVRGICTRFCGTSFFTVGDDKTVKQWKMDGPGYGDEEEPLHTILGKTVYTGIDHHWKEAVFATCGQQVDIWDEQRTNPICSMTWGFDSISSVKFNPIETFLLGSCASDRNIVLYDMRQATPLKKVILDMRTNTICWNPMEAFIFTAANEDYNLYTFDMRALDTPVMVHMDHVSAVLDVDYSPTGKEFVSASFDKSIRIFPVDKSRSREVYHTKRMQHVICVKWTSDSKYIMCGSDEMNIRLWKANASEKLGVLTSREKAAKDYNQKLKEKFQHYPHIKRIARHRHLPKSIYSQIQEQRIMKEARRRKEVNRIKHSKPGSVPLVSEKKKHVVAVVK
  binding: binds
